Measurements published in the supplement of paper PMC12823440, “Inhibitors supercharge kinase turnover through native proteolytic circuits” (Nature, 2025).
Structures can show the parent of a compound that is named as a salt. This is one part of the list. Hit calls seldom repeat between salt and free forms of one compound.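 Kinases, fused to nanoluciferase, were expressed in K562 cells; luminescence was measured every 4 h from 2 to 18 h as percent of control (DMSO = 100%, positive control = 0%). A time point is decreased if signal falls significantly (2 sigma). Hits were called by the authors by a rule that is not shown; the count of time points alone does not decide it.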

Chains of the proteins cited; added tags and fusions are not shown. Lines headed by an entry give the natural chain unless they say otherwise; changes in a name come on top.
UniProt Q9BUB5: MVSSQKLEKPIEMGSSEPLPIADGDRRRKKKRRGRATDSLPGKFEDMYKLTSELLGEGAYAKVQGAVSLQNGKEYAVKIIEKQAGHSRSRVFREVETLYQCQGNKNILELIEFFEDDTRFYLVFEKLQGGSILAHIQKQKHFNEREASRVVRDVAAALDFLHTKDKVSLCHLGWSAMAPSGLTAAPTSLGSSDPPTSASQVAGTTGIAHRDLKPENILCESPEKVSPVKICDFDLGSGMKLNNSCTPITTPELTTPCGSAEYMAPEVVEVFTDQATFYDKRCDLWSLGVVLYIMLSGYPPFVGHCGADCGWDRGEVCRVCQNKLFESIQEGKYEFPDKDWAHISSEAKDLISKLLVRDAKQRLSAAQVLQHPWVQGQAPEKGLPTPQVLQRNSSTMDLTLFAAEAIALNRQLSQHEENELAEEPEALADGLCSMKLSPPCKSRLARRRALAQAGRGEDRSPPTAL
UniProt Q16288, whole entry, looked up: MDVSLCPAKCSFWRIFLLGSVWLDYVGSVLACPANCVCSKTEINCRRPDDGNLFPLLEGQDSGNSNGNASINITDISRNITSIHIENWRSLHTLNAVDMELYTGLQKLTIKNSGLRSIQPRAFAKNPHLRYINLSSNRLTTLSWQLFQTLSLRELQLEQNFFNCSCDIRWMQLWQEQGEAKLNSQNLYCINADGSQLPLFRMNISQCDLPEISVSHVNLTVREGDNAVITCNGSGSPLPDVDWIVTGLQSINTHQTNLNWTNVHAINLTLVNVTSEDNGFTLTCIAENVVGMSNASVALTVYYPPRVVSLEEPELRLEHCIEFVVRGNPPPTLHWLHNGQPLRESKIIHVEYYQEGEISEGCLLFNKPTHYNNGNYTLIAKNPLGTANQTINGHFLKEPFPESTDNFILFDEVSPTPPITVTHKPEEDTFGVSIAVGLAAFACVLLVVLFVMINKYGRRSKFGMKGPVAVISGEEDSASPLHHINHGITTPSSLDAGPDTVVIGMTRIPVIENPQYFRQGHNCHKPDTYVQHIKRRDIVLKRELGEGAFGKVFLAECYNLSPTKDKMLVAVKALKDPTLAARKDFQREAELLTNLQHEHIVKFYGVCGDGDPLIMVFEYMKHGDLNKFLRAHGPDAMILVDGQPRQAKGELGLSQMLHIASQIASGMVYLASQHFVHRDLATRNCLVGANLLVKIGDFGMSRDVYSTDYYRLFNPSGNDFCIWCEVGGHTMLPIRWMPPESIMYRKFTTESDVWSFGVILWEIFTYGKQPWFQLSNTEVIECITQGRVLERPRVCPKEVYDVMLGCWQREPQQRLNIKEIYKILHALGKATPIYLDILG
UniProt O96013: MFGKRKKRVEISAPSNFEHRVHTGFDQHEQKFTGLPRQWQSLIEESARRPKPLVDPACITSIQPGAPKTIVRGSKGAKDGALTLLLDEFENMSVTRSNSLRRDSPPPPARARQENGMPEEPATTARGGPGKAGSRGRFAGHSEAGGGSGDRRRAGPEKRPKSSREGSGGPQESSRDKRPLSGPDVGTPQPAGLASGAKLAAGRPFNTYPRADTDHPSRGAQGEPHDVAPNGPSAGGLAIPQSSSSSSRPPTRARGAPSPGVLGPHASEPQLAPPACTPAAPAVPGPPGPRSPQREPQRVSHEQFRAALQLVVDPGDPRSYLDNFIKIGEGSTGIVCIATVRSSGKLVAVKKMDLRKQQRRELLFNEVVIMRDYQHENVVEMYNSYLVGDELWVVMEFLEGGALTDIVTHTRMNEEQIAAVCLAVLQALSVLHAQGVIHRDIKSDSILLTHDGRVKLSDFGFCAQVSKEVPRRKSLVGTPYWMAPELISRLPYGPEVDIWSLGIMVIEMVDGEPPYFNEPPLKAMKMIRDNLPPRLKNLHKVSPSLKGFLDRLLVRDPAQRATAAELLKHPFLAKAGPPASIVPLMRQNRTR
UniProt P09619, whole entry: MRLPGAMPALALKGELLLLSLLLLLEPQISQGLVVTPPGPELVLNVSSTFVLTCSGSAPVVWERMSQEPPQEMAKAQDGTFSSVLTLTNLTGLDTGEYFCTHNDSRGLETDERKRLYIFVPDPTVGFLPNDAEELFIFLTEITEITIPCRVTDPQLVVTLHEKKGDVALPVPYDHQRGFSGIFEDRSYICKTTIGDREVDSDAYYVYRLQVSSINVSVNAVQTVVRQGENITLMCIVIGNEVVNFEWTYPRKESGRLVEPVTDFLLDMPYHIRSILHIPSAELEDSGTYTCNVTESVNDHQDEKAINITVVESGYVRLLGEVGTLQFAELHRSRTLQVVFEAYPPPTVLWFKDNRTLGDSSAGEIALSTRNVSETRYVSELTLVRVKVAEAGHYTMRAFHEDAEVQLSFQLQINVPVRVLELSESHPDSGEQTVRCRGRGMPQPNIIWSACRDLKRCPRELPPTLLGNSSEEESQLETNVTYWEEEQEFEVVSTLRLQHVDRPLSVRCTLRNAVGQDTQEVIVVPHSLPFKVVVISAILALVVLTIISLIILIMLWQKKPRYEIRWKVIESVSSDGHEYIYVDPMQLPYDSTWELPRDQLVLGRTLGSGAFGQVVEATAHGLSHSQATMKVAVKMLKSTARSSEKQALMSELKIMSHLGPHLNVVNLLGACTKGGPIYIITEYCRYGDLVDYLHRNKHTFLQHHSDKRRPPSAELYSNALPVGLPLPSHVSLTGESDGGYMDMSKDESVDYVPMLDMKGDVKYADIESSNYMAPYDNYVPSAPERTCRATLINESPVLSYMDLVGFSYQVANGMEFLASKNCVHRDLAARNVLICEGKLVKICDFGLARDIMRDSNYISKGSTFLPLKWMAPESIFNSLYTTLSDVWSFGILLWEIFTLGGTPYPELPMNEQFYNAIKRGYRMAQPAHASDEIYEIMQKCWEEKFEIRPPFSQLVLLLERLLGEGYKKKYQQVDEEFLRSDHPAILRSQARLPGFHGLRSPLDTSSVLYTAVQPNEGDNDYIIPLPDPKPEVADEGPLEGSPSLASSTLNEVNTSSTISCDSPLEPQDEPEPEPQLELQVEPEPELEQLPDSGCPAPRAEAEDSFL
UniProt Q15118, whole entry, looked up: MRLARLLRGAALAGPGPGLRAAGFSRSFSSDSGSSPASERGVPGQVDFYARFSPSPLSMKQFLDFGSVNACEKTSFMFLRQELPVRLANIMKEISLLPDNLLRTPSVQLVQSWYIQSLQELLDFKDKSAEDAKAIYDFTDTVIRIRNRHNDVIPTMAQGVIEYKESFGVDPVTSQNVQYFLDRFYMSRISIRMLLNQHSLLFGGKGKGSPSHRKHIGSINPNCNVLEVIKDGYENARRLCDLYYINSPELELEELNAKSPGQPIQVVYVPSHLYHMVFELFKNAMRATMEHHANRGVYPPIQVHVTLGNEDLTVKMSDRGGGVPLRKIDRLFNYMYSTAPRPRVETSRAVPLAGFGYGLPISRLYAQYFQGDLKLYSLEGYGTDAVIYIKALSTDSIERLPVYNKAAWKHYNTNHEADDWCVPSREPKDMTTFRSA
UniProt P42356, whole entry, looked up: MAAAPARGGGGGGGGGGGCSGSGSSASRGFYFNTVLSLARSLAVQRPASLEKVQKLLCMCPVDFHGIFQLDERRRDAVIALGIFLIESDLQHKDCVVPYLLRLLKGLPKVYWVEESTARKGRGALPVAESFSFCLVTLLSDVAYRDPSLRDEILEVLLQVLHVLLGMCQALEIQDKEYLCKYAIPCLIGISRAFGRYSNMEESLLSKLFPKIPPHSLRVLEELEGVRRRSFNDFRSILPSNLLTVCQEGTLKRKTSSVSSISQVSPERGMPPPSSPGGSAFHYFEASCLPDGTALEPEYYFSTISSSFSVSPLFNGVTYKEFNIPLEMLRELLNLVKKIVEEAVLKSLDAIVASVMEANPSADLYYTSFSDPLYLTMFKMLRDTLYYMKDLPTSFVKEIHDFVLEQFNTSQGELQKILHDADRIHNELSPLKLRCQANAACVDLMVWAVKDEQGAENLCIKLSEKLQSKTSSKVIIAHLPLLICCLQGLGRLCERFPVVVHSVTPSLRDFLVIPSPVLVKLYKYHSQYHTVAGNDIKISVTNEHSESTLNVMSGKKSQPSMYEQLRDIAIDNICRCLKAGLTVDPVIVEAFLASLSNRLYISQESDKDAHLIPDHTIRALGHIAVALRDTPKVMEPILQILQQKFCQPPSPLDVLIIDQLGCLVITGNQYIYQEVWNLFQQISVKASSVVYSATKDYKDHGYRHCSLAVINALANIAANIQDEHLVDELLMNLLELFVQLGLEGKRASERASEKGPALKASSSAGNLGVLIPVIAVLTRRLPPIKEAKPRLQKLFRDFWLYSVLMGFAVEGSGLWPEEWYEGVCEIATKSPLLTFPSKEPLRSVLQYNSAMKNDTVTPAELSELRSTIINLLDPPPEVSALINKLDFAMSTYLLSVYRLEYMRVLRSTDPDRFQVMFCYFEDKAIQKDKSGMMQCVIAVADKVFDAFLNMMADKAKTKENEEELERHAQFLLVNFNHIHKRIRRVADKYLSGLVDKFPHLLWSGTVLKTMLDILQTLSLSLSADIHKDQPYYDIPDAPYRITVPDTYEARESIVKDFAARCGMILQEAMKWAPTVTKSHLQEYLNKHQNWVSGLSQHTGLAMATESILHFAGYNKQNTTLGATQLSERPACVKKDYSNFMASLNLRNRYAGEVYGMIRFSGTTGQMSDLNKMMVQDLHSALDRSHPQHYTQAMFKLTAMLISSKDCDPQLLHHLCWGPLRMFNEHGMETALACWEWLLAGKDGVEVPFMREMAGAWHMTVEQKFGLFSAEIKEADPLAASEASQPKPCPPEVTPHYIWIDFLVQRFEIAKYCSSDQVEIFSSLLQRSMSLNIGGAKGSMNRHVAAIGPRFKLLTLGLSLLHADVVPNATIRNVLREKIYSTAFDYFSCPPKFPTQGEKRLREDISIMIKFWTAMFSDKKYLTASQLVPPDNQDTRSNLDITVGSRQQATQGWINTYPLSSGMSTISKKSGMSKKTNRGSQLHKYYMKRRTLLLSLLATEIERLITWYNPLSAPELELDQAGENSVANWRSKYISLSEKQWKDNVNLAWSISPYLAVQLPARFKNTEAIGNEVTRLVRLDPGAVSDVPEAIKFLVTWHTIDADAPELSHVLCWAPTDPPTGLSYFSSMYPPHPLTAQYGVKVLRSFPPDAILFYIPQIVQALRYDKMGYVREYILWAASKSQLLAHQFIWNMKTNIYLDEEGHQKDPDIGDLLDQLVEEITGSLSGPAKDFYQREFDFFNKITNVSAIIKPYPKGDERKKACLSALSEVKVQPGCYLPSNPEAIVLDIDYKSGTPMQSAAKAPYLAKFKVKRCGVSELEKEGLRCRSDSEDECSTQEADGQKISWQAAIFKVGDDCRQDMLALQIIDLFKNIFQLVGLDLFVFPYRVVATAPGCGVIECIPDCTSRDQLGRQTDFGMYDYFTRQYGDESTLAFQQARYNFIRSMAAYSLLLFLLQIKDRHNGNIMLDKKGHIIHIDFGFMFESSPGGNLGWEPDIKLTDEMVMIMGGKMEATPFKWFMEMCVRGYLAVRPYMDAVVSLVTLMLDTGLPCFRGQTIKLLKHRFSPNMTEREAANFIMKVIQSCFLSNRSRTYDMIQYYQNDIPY
UniProt Q14289, whole entry, looked up: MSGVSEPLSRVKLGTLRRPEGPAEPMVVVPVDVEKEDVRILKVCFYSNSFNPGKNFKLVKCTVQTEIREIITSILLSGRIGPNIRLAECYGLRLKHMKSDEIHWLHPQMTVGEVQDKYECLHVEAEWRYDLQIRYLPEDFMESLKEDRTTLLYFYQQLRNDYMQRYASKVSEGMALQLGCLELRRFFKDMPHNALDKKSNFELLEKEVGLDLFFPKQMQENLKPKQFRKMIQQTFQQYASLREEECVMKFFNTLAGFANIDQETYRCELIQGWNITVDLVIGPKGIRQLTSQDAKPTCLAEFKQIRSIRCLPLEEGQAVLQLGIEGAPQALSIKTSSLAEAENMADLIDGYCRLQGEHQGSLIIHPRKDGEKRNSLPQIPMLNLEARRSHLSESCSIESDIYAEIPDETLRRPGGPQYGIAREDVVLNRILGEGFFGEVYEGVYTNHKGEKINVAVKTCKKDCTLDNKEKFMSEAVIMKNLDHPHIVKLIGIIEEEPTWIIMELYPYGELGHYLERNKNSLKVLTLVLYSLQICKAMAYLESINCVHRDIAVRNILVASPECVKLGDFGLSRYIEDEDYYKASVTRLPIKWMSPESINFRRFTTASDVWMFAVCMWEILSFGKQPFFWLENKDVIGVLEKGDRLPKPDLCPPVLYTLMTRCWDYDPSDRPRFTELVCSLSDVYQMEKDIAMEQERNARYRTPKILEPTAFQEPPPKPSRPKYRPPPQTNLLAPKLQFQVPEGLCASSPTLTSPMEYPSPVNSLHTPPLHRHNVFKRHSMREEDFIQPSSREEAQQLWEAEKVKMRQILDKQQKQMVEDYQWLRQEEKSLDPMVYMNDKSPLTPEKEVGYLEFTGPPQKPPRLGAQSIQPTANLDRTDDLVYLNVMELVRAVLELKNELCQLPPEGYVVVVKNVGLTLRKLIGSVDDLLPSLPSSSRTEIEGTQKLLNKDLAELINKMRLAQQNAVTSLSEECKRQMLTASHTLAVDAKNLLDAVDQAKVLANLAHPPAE

How the values were obtained:
Test in all cases: kinase-Nluc reporter destabilization hit call (1 = scored as downregulated) (binary); higher = compound decreases kinase abundance
Conditions in all cases: K562; 2-18 h
MAPK1 = MAPK1 (UniProt P28482)
MAPK4 = MAPK4 (UniProt P31152)
MAPKAPK2 = MAPKAPK2 (UniProt P49137)
MKNK1 = MKNK1 (UniProt Q9BUB5)
NTRK2 = NTRK2 (UniProt Q16620)
NTRK3 = NTRK3 (UniProt Q16288)
PAK4 = PAK4 (UniProt O96013)
PBK = PBK (UniProt Q96KB5)
PDGFRB = PDGFRB (UniProt P09619)
PDK1 = PDK1 (UniProt Q15118)
PDPK1 = PDPK1 (UniProt O15530)
PIK4CA = PIK4CA (UniProt P42356)
PIK4CB = PIK4CB (UniProt Q9UBF8)
PLK1 = PLK1 (UniProt P53350)
PRKAA1 = PRKAA1 (UniProt Q13131)
PRKCA = PRKCA (UniProt P17252)
PTK2 = PTK2 (UniProt Q05397)
PTK2B = PTK2B (UniProt Q14289)
RAF1 = RAF1 (UniProt P04049)
[1] = target: RAF1_S257L (clone: RAF1_mut) (UniProt P04049)

Measured: kinase-Nluc reporter destabilization hit call

Cc1ccc(NC(=O)c2ccc(CN(CCN(C)C)C(=O)c3cccnc3)cc2)cc1Nc1nccc(-c2cccnc2)n1 [PDGFRα kinase inhibitor 1] (10 µM)
inactive: MAPK1 = 0 | MAPK4 = 0 | MAPKAPK2 = 0 | MKNK1 = 0 | NTRK2 = 0 | NTRK3 = 0 | PAK4 = 0 | PBK 0 | PDGFRB 0 | PDK1 = 0 | PDPK1 = 0 | PIK4CA 0 | PIK4CB 0 | PLK1 = 0 | PRKAA1 = 0 | PRKCA 0 | PTK2 = 0 | PTK2B 0 | RAF1 = 0 | [1] 0

CNC(=O)c1cc2c(Oc3ccc(NC(=S)NC(=O)Cc4ccccc4)cc3F)ccnc2cc1OC [TAS-115 mesylate] (10 µM)
inactive: MAPK1 = 0 | MAPK4 = 0 | MAPKAPK2 = 0 | MKNK1 = 0 | NTRK2 = 0 | NTRK3 = 0 | PAK4 = 0 | PBK 0 | PDGFRB 0 | PDK1 = 0 | PDPK1 = 0 | PIK4CA 0 | PIK4CB 0 | PLK1 = 0 | PRKAA1 = 0 | PRKCA 0 | PTK2 = 0 | PTK2B 0 | RAF1 = 0 | [1] 0

O=c1[nH]c(C2CCCN2)nc2c1oc1ccc(Cl)cc12 (stereo not given) [XL413 (hydrochloride)] (10 µM)
inactive: MAPK1 = 0 | MAPK4 = 0 | MAPKAPK2 = 0 | MKNK1 = 0 | NTRK2 = 0 | NTRK3 = 0 | PAK4 = 0 | PBK 0 | PDGFRB 0 | PDK1 = 0 | PDPK1 = 0 | PIK4CA 0 | PIK4CB 0 | PLK1 = 0 | PRKAA1 = 0 | PRKCA 0 | PTK2 = 0 | PTK2B 0 | RAF1 = 0 | [1] 0

Cc1cc(Nc2ncnc3ccc(-c4ccc(CNCCS(C)(=O)=O)o4)cc23)ccc1Oc1ccn2ncnc2c1 [ARRY-380 (analog )] (2.5 µM)
inactive: MAPK1 = 0 | MAPK4 = 0 | MAPKAPK2 = 0 | MKNK1 = 0 | NTRK2 = 0 | NTRK3 = 0 | PAK4 = 0 | PBK 0 | PDGFRB 0 | PDK1 = 0 | PDPK1 = 0 | PIK4CA 0 | PIK4CB 0 | PLK1 = 0 | PRKAA1 = 0 | PRKCA 0 | PTK2 = 0 | PTK2B 0 | RAF1 = 0 | [1] 0

CC(C)CCNC(=O)c1ccc2c(c1)nc(Nc1n[nH]c3ccc(-c4ccccc4OC(F)(F)F)cc13)n2C1CCC(O)CC1 (stereo not drawn) [IRAK inhibitor 4 (trans)] (10 µM)
inactive: MAPK1 = 0 | MAPK4 = 0 | MAPKAPK2 = 0 | MKNK1 = 0 | NTRK2 = 0 | NTRK3 = 0 | PAK4 = 0 | PBK 0 | PDGFRB 0 | PDK1 = 0 | PDPK1 = 0 | PIK4CA 0 | PIK4CB 0 | PLK1 = 0 | PRKAA1 = 0 | PRKCA 0 | PTK2 = 0 | PTK2B 0 | RAF1 = 0 | [1] 0

COc1ccc2cc3[n+](cc2c1OC)CCc1cc(O)c(O)cc1-3 [Demethyleneberberine] (10 µM)
inactive: MAPK1 = 0 | MAPK4 = 0 | MAPKAPK2 = 0 | MKNK1 = 0 | NTRK2 = 0 | NTRK3 = 0 | PAK4 = 0 | PBK 0 | PDGFRB 0 | PDK1 = 0 | PDPK1 = 0 | PIK4CA 0 | PIK4CB 0 | PLK1 = 0 | PRKAA1 = 0 | PRKCA 0 | PTK2 = 0 | PTK2B 0 | RAF1 = 0 | [1] 0

NC(=S)n1[nH]c(-c2ccc([N+](=O)[O-])cc2)c(N=Nc2cccc(Cl)c2)c1=O (2.5 µM)
inactive: MAPK1 = 0 | MAPK4 = 0 | MAPKAPK2 = 0 | MKNK1 = 0 | NTRK2 = 0 | NTRK3 = 0 | PAK4 = 0 | PBK 0 | PDGFRB 0 | PDK1 = 0 | PDPK1 = 0 | PIK4CA 0 | PIK4CB 0 | PLK1 = 0 | PRKAA1 = 0 | PRKCA 0 | PTK2 = 0 | PTK2B 0 | RAF1 = 0 | [1] 0

COc1ncccc1-c1cnn2ccc(N3CCN(C(=O)OC(C)C)CC3)nc12 (10 µM)
inactive: MAPK1 = 0 | MAPK4 = 0 | MAPKAPK2 = 0 | MKNK1 = 0 | NTRK2 = 0 | NTRK3 = 0 | PAK4 = 0 | PBK 0 | PDGFRB 0 | PDK1 = 0 | PDPK1 = 0 | PIK4CA 0 | PIK4CB 0 | PLK1 = 0 | PRKAA1 = 0 | PRKCA 0 | PTK2 = 0 | PTK2B 0 | RAF1 = 0 | [1] 0

COc1ccc(-c2coc3cc(O)ccc3c2=O)cc1 [Formononetin] (10 µM)
inactive: MAPK1 = 0 | MAPK4 = 0 | MAPKAPK2 = 0 | MKNK1 = 0 | NTRK2 = 0 | NTRK3 = 0 | PAK4 = 0 | PBK 0 | PDGFRB 0 | PDK1 = 0 | PDPK1 = 0 | PIK4CA 0 | PIK4CB 0 | PLK1 = 0 | PRKAA1 = 0 | PRKCA 0 | PTK2 = 0 | PTK2B 0 | RAF1 = 0 | [1] 0

COc1ccc(/C=C/C(=O)C2(C(=O)/C=C/c3ccc(OC)c(OC)c3)CCCCC2)cc1OC (2.5 µM)
inactive: MAPK1 = 0 | MAPK4 = 0 | MAPKAPK2 = 0 | MKNK1 = 0 | NTRK2 = 0 | NTRK3 = 0 | PAK4 = 0 | PBK 0 | PDGFRB 0 | PDK1 = 0 | PDPK1 = 0 | PIK4CA 0 | PIK4CB 0 | PLK1 = 0 | PRKAA1 = 0 | PRKCA 0 | PTK2 = 0 | PTK2B 0 | RAF1 = 0 | [1] 0

CC(C)c1cc(/C=C(\C#N)C(=O)NCCCc2ccccc2)cc(C(C)C)c1O (10 µM)
inactive: MAPK1 = 0 | MAPK4 = 0 | MAPKAPK2 = 0 | MKNK1 = 0 | NTRK2 = 0 | NTRK3 = 0 | PAK4 = 0 | PBK 0 | PDGFRB 0 | PDK1 = 0 | PDPK1 = 0 | PIK4CA 0 | PIK4CB 0 | PLK1 = 0 | PRKAA1 = 0 | PRKCA 0 | PTK2 = 0 | PTK2B 0 | RAF1 = 0 | [1] 0

O=[N+]([O-])c1ccc(Nc2nc(N3CCOCC3)nc(N3CCOCC3)n2)cc1 (10 µM)
inactive: MAPK1 = 0 | MAPK4 = 0 | MAPKAPK2 = 0 | MKNK1 = 0 | NTRK2 = 0 | NTRK3 = 0 | PAK4 = 0 | PBK 0 | PDGFRB 0 | PDK1 = 0 | PDPK1 = 0 | PIK4CA 0 | PIK4CB 0 | PLK1 = 0 | PRKAA1 = 0 | PRKCA 0 | PTK2 = 0 | PTK2B 0 | RAF1 = 0 | [1] 0

A draw from above in order of length of the SMILES, high to low:
CC(C)CCNC(=O)c1ccc2c(c1)nc(Nc1n[nH]c3ccc(-c4ccccc4OC(F)(F)F)cc13)n2C1CCC(O)CC1 (stereo not drawn) [IRAK inhibitor 4 (trans)] (10 µM)
inactive: MAPK1 = 0 | MAPK4 = 0 | MAPKAPK2 = 0 | MKNK1 = 0 | NTRK2 = 0 | NTRK3 = 0 | PAK4 = 0 | PBK 0 | PDGFRB 0 | PDK1 = 0 | PDPK1 = 0 | PIK4CA 0 | PIK4CB 0 | PLK1 = 0 | PRKAA1 = 0 | PRKCA 0 | PTK2 = 0 | PTK2B 0 | RAF1 = 0 | [1] 0

NC(=S)n1[nH]c(-c2ccc([N+](=O)[O-])cc2)c(N=Nc2cccc(Cl)c2)c1=O (2.5 µM)
inactive: MAPK1 = 0 | MAPK4 = 0 | MAPKAPK2 = 0 | MKNK1 = 0 | NTRK2 = 0 | NTRK3 = 0 | PAK4 = 0 | PBK 0 | PDGFRB 0 | PDK1 = 0 | PDPK1 = 0 | PIK4CA 0 | PIK4CB 0 | PLK1 = 0 | PRKAA1 = 0 | PRKCA 0 | PTK2 = 0 | PTK2B 0 | RAF1 = 0 | [1] 0

COc1ncccc1-c1cnn2ccc(N3CCN(C(=O)OC(C)C)CC3)nc12 (10 µM)
inactive: MAPK1 = 0 | MAPK4 = 0 | MAPKAPK2 = 0 | MKNK1 = 0 | NTRK2 = 0 | NTRK3 = 0 | PAK4 = 0 | PBK 0 | PDGFRB 0 | PDK1 = 0 | PDPK1 = 0 | PIK4CA 0 | PIK4CB 0 | PLK1 = 0 | PRKAA1 = 0 | PRKCA 0 | PTK2 = 0 | PTK2B 0 | RAF1 = 0 | [1] 0

O=c1[nH]c(C2CCCN2)nc2c1oc1ccc(Cl)cc12 (stereo not given) [XL413 (hydrochloride)] (10 µM)
inactive: MAPK1 = 0 | MAPK4 = 0 | MAPKAPK2 = 0 | MKNK1 = 0 | NTRK2 = 0 | NTRK3 = 0 | PAK4 = 0 | PBK 0 | PDGFRB 0 | PDK1 = 0 | PDPK1 = 0 | PIK4CA 0 | PIK4CB 0 | PLK1 = 0 | PRKAA1 = 0 | PRKCA 0 | PTK2 = 0 | PTK2B 0 | RAF1 = 0 | [1] 0

Next results follow.

COc1cc(-c2cn[nH]c2)ccc1C(=O)Nc1ccc2c(c1)CCNCC2 (10 µM)
inactive: MAPK1 = 0 | MAPK4 = 0 | MAPKAPK2 = 0 | MKNK1 = 0 | NTRK2 = 0 | NTRK3 = 0 | PAK4 = 0 | PBK 0 | PDGFRB 0 | PDK1 = 0 | PDPK1 = 0 | PIK4CA 0 | PIK4CB 0 | PLK1 = 0 | PRKAA1 = 0 | PRKCA 0 | PTK2 = 0 | PTK2B 0 | RAF1 = 0 | [1] 0

Cc1cc(Nc2nc(CC3(C(=O)O)CCN(C(=O)c4cccc(Cl)c4Cl)CC3)ccc2F)n[nH]1 (10 µM)
inactive: MAPK1 = 0 | MAPK4 = 0 | MAPKAPK2 = 0 | MKNK1 = 0 | NTRK2 = 0 | NTRK3 = 0 | PAK4 = 0 | PBK 0 | PDGFRB 0 | PDK1 = 0 | PDPK1 = 0 | PIK4CA 0 | PIK4CB 0 | PLK1 = 0 | PRKAA1 = 0 | PRKCA 0 | PTK2 = 0 | PTK2B 0 | RAF1 = 0 | [1] 0

NC(=O)c1cnc2[nH]ccc2c1N[C@@H]1[C@@H]2CC3C[C@H]1C[C@@](O)(C3)C2 [Peficitinib] (10 µM)
inactive: MAPK1 = 0 | MAPK4 = 0 | MAPKAPK2 = 0 | MKNK1 = 0 | NTRK2 = 0 | NTRK3 = 0 | PAK4 = 0 | PBK 0 | PDGFRB 0 | PDK1 = 0 | PDPK1 = 0 | PIK4CA 0 | PIK4CB 0 | PLK1 = 0 | PRKAA1 = 0 | PRKCA 0 | PTK2 = 0 | PTK2B 0 | RAF1 = 0 | [1] 0

NC1=NCCN1CC(=O)O [Cyclocreatine] (10 µM)
inactive: MAPK1 = 0 | MAPK4 = 0 | MAPKAPK2 = 0 | MKNK1 = 0 | NTRK2 = 0 | NTRK3 = 0 | PAK4 = 0 | PBK 0 | PDGFRB 0 | PDK1 = 0 | PDPK1 = 0 | PIK4CA 0 | PIK4CB 0 | PLK1 = 0 | PRKAA1 = 0 | PRKCA 0 | PTK2 = 0 | PTK2B 0 | RAF1 = 0 | [1] 0

COc1cc(N2CCOCC2)ccc1NC(=O)c1csc(-c2cccnc2)n1 [IRAK inhibitor 6] (10 µM)
inactive: MAPK1 = 0 | MAPK4 = 0 | MAPKAPK2 = 0 | MKNK1 = 0 | NTRK2 = 0 | NTRK3 = 0 | PAK4 = 0 | PBK 0 | PDGFRB 0 | PDK1 = 0 | PDPK1 = 0 | PIK4CA 0 | PIK4CB 0 | PLK1 = 0 | PRKAA1 = 0 | PRKCA 0 | PTK2 = 0 | PTK2B 0 | RAF1 = 0 | [1] 0

C#Cc1cccc(Nc2ncnc3cc(OC)c(OCCCCCCC(=O)NO)cc23)c1 (2.5 µM)
inactive: MAPK1 = 0 | MAPK4 = 0 | MAPKAPK2 = 0 | MKNK1 = 0 | NTRK2 = 0 | NTRK3 = 0 | PAK4 = 0 | PBK 0 | PDGFRB 0 | PDK1 = 0 | PDPK1 = 0 | PIK4CA 0 | PIK4CB 0 | PLK1 = 0 | PRKAA1 = 0 | PRKCA 0 | PTK2 = 0 | PTK2B 0 | RAF1 = 0 | [1] 0
